Test results from patent US8536407B2, “Heat resistant plants and plant tissues comprising a variant adenosine diphosphate glucose pyrophosphorylase small subunit protein and methods of use thereof” (University of Florida Research Foundation, Inc., priority 2008, dated 2013).

B1: BT2-TI: BT2 small subunit with change of amino acid 462 from threonine to isoleucine (protein)
chain: MDMALASKASPPPWNATAAEQPIPKRDKAAANDSTYLNPQAHDSVLGIILGGGAGTRLYPLTKKRAKPAVPLGANYRLIDIPVSNCLNSNISKIYVLTQFNSASLNRHLSRAYGSNIGGYKNEGFVEVLAAQQSPDNPNWFQGTADAVRQYLWLFEEHNVMEFLILAGDHLYRMDYEKFIQAHRETNADITVAALPMDEKRATAFGLMKIDEEGRIIEFAEKPKGEQLKAMMVDTTILGLDDVRAKEMPYIASMGIYVFSKDVMLQLLREQFPEANDFGSEVIPGATSIGKRVQAYLYDGYWEDIGTIAAFYNANLGITKKPIPDFSFYDRFAPIYTQPRHLPPSKVLDADVTDSVIGEGCVIKNCKINHSVVGLRSCISEGAIIEDSLLMGADYYETEADKKLLAEKGGIPIGIGKNSCIRRAIIDKNARIGDNVKILNADNVQEAAMETDGYFIKGGIVIVIKDALLPSGTVI
modifications: zea mays BT2 protein
notes: BT2 small subunit with change of amino acid 462 from threonine to isoleucine
B2: MP-TI: MP mosaic small subunit with the amino acid change of TI introduced (protein)
chain: MDMALASKASPPPWNATAAEQPIPKRDKAAANDSTYLNPQAHDSVLGIILGGGAGTRLYPLTKKRAKPAVPLGANYRLIDIPVSNCLNSNISKIYVLTQFNSASLNRHLSRAYGSNIGGYKNEGFVEVLAAQQSPDNPNWFQGTADAVRQYLWLFEEHNVMEFLILAGDHLYRMDYEKFIQAHRETNADITVAALPMDEKRATAFGLMKIDEEGRIIEFAEKPQGEQLQAMKVDTTILGLDDKRAKEMPFIASMGIYVISKDVMLNLLRDKFPGANDFGSEVIPGATSLGMRVQAYLYDGYWEDIGTIEAFYNANLGITKKPVPDFSFYDRSAPIYTQPRYLPPSKMLDADVTDSVIGEGCVIKNCKIHHSVVGLRSCISEGAIIEDSLLMGADYYETDADRKLLAAKGSVPIGIGKNCHIKRAIIDKNARIGDNVKIINKDNVQEAARETDGYFIKSGIVIVIKDALIPSGIII
modifications: zea mays MP-TI protein
notes: MP mosaic small subunit with the amino acid change of TI introduced

Tested on: BT2
Test: Dot blot of crude extracts from E. coli cells, monoclonal antibody against BT2
Parameters: species or system maize
Conditions: E. coli cells expressing the subunit with SH2

Molecule	amount of small subunit protein in crude extracts (dot blot)
B1	found in higher amounts in E. coli
B2	greater amounts of the MP-TI protein relative to BT2
